Data as given in PubChem BioAssay AID743255 (National Center for Advancing Translational Sciences (NCATS), 2014).
The campaign covered roughly 390,000 compounds. About 910 (0.23%) were called active. The inconclusive results got no clear call from the source; some entries with a clear call stand among them for comparison. Calls follow the shape of the dose curve; as a rule, active = well fitted inhibition curve with a large enough effect; inconclusive = small, poorly fitted or top-dose-only effect; inactive = no such curve, though single readings can be large or run the other way. A potency beside an inconclusive call is a rough fit, not a confirmed value.

Sequences of proteins named here, by UniProt entry; tags and fusion partners are left off. A change or cut given only in a name is not applied to a line headed by its entry.
UniProt O94782: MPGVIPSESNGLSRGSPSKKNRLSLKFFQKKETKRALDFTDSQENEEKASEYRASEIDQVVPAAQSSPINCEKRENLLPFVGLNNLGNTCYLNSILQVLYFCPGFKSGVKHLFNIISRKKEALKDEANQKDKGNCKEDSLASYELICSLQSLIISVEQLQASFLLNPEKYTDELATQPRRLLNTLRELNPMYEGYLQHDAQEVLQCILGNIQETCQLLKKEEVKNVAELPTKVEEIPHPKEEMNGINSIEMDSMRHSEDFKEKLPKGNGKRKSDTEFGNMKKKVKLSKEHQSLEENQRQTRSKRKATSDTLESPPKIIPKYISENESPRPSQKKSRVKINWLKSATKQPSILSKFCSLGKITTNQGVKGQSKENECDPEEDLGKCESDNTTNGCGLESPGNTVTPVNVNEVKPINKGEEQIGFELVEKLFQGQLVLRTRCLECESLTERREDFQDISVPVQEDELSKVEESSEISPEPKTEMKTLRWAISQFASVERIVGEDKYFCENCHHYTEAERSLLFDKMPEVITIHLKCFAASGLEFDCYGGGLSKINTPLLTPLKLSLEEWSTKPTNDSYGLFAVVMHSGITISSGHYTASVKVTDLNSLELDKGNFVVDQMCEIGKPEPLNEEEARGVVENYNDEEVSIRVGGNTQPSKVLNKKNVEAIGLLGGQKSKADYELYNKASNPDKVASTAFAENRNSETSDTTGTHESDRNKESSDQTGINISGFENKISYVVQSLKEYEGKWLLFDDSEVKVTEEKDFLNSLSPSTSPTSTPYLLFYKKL

target: Ubiquitin carboxyl-terminal hydrolase 1 (Homo sapiens) (UniProt O94782); experiment: Inhibitors of USP1/UAF1: Primary Screen; settings: recombinant USP1/UAF1, Ub-Rhodamine cleavage fluorescence; activity change, negative = inhibition: at 57.1 µM (top of the series); also: nearly all actives have a fitted effect of over 60% in size
Text: Deubiquitinating enzymes (DUBs) are a class of enzymes that can cleave isopeptide bond formed between the C-terminal carboxylate of ubiquitin and a lysine side-chain amino group on the target protein. Among them, ubiquitin specific proteases (USPs) constitute the largest DUB family. Human USPs are emerging as promising targets for pharmacological intervention because of their connection to a number of human diseases, including prostate, colon and breast cancer (1, 2), pediatric acute lymphoblastic leukemia (3), and familial cylindromatosis (4). The advantage of inhibiting USPs lies in the potential specificity of therapeutic intervention that can lead to better efficacy and reduce nonspecific side effects. In a collaboration between the University of Delaware and the NIH Chemical Genomics Center, a high-throughput screen assay was developed to screen for USP1/UAF1 inhibitors. This miniaturized assay has a fluorescent read-out and is used to screen the NIH Molecular Libraries Small Molecule Repository (MLSMR) in order to identify a small molecule that inhibits USP1. NIH Chemical Genomics Center [NCGC] NIH Molecular Libraries Probe Centers Network [MLPCN] MLPCN Grant: DA030552 Assay Submitter (PI): Zhihao Zhuang, University of Delaware 1. Priolo, C., et al. (2006) The isopeptidase USP2a protects human prostate cancer from apoptosis. Cancer Res 66, 8625-8632 2. Popov, N., et al. (2007) The ubiquitin-specific protease USP28 is required for MYC stability. Nat Cell Biol 9, 765-774 3. De Pitta, C., et al. (2005) A leukemia-enriched cDNA microarray platform identifies new transcripts with relevance to the biology of pediatric acute lymphoblastic leukemia. Haematologica 90, 890-898 4. Kovalenko, A., et al. (2003) The tumour suppressor CYLD negatively regulates NF-kappaB signalling by deubiquitination. Nature 424, 801-805
3 microliters of reagents (buffer in columns 3 and 4 as negative control and 1nM USP1/UAF1 complex in columns 1, 2, and 5-48) are dispensed into Greiner black solid bottom 1536-well assay plates. Compounds are then transferred via Kalypsys pin tool equipped with 1536-pin array (10nl slotted pins, V&P Scientific, San Diego, CA). Following an incubation step of 15 min at room temperature, 1ul of Ub-Rho substrate (150nM final concentration) is added to initiate the reaction. The plates are immediately centrifuged at 1000 rpm for 15 seconds, and subsequently transferred to a ViewLux high-throughput CCD imager (PerkinElmer) wherein kinetic measurements of fluorescence are acquired using 480 nm excitation/540 nm emission filter set (6 reads every 60 seconds, see Table 1). All reagents are diluted in an assay buffer consisting of 50mM HEPES (pH 7.8), 0.5mM EDTA, 0.1 mg/ml BSA, 1mM TCEP, and 0.01% Tween-20.
% is scaled to controls: 0 for no effect and ±100 for the full control effect; potency is read from the fitted curve at half-maximal effect.

Structure (SMILES)	activity change, negative = inhibition	Potency
CSC1CCCCC1(O)CSc1nc2c(cc1C#N)CCCC2 (centres undefined)	inactive: -21.5%	
CCOc1ccc(CCNC(=O)CSc2nnnn2-c2ccccc2Cl)cc1OCC	inactive: -25.4%	
Cc1ccc(C)c(N2CCN(C(=O)CN3CCSc4ccccc43)CC2)c1		inconclusive: 44.7 µM [inhibitor, partial curve]
COc1ccccc1NC(=O)Cc1nnc(SCC(=O)NC2CCCCC2)n1C		inconclusive: 0.708 µM [inhibitor, full curve]
CCOc1ccc(C(=O)Nc2nccs2)cc1[N+](=O)[O-]		inconclusive: 3.55 µM [inhibitor, partial curve]
Cc1ccc(NC(=O)Cc2ccc3c(c2)CCCC3)cc1C		inconclusive: 39.8 µM [inhibitor, single point]
Cc1ccc(C(=O)/C=C/c2ccc3ncccc3c2)cc1		inconclusive: 35.5 µM [inhibitor, partial curve]
O=S(=O)(Nc1ccc(S(=O)(=O)Nc2ncccn2)cc1)c1ccc(Cl)cc1		inconclusive: 0.708 µM [inhibitor, full curve]
Cc1cccc2sc(N(Cc3cccnc3)C(=O)CCS(=O)(=O)c3ccccc3)nc12	inactive: 1.65%	
S=C(NCc1ccc2c(c1)OCO2)Nc1ccc(-c2nc3ccccc3[nH]2)cc1	inactive: -11.3%	
O=C(NNC(=O)c1sccc1-n1cccc1)Nc1ccccc1		inconclusive: 44.7 µM [inhibitor, partial curve, poor fit]
COc1ccc(NC(=O)c2cc(C)no2)cc1	inactive: -21.5%	
COc1ccccc1CNC(=O)CCNS(=O)(=O)/C=C/c1ccc(C)cc1		inconclusive: 5.01 µM [inhibitor, partial curve]
CC(C)c1cccc(C2=CC(=O)C[C@H](c3ccc4c(c3)OCO4)C2)c1		inconclusive: 39.8 µM [inhibitor, partial curve, poor fit]
Cc1ccc(N=Nc2[nH]c3ccccc3c2O)cc1		inconclusive: 7.94 µM [inhibitor, partial curve, poor fit]
CC(C)CNC(=O)COC(=O)c1c2c(nc3ccccc13)CCC2		inconclusive: 31.6 µM [inhibitor, partial curve]
CC(=O)COC(=O)C1CCN(S(=O)(=O)c2cc([N+](=O)[O-])ccc2Cl)CC1	inactive: -24.2%	
COc1cccc(C(=O)OCC(=O)N2CCc3ccccc3C2)c1		inconclusive: 31.6 µM [inhibitor, single point]
Cc1cc(-c2ccc(S(=O)(=O)Nc3cccc(C(F)(F)F)c3)s2)on1		inconclusive: 3.16 µM [inhibitor, partial curve]
CC1(c2ccccc2Cl)NC(=O)N(CC(=O)N2CCc3ccccc32)C1=O (centres undefined)		inconclusive: 44.7 µM [inhibitor, single point]
Cn1c2ccccc2c(=O)c2cc(C#CC3=CCCCC3)ccc21		inconclusive: 50.1 µM [inhibitor, single point]
CC1=C(c2ccc(C)c(C)c2)S(=O)(=O)N=C1N1CCN(c2cccc(C)c2)C(C)C1 (centres undefined)	inactive: -1.04%	
CCCN(CCC)Cc1c(C(=O)N/N=C/CCc2ccccc2)nnn1-c1nonc1N		inconclusive: 5.01 µM [inhibitor, full curve]

Structure (SMILES)	activity change, negative = inhibition	Potency
CCOc1ccc(NC(=O)CC2Nc3cccc4cccc(c34)NC2=O)cc1 (centres undefined)		inconclusive: 50.1 µM [inhibitor, partial curve, poor fit]
COc1cc(/C=C2\SC(=O)N(c3ccccc3Cl)C2=O)cc([N+](=O)[O-])c1O	inactive: -20%	
O=C(O)CC1COc2ccccc2N1S(=O)(=O)c1ccc(Br)cc1 (centres undefined)	inactive: -17.7%	
N#C/C(=C/c1cn(CC(=O)O)c2ccccc12)C(=O)Nc1ccccc1		inconclusive: 79.4 µM [inhibitor, partial curve, poor fit]
Cc1nc2ccc(S(=O)(=O)NC(C(=O)NCc3cccs3)C(C)C)cc2s1 (centres undefined)		inconclusive: 0.282 µM [inhibitor, full curve]
CCOC(=O)C1CCN(c2c([N+](=O)[O-])c(C(Cl)Cl)nn2-c2ccccc2)CC1		inconclusive: 0.708 µM [inhibitor, full curve, poor fit]
CC(C)n1c(S(=O)(=O)O)nc2ccccc21		inconclusive: 8.91 µM [inhibitor, partial curve, poor fit]
Cc1c(C(=O)N(C)C)sc2c1c(=O)n(-c1ccccc1C(F)(F)F)c(=O)n2Cc1ccccc1C#N		inconclusive: 50.1 µM [inhibitor, partial curve, poor fit]
Cc1nc2c(=O)[nH]c3ccccc3c2o1		inconclusive: 100 µM [inhibitor, partial curve, poor fit]
CCOC(=O)NC(=O)/C(C#N)=C/c1ccc(N(C)C)cc1		inconclusive: 39.8 µM [inhibitor, single point]
Cc1cc(C)c(NC(=O)C2CCN(C(=O)N3CC(C)Oc4ccc(Cl)cc43)CC2)c(C)c1 (centres undefined)	inactive: -23%	
O=C(NN1C(=O)C2C3C=CC(C3)C2C1=O)c1ccccc1 (centres undefined)		inconclusive: 31.6 µM [inhibitor, single point]
Cc1cc(Nc2ccccc2F)n2nc(Cc3ccc(Cl)cc3)nc2n1	inactive: -14.8%	
Cc1ccc2c(c1)/C(=N/N1C(=O)c3ccccc3C1=O)C(=O)N2	inactive: -12.6%	
CCOc1ccc(NC(=O)CN(c2cc(C)cc(C)c2)S(=O)(=O)c2c(C)noc2C)cc1	inconclusive: -30.5% [inhibitor]	
COc1ccc(-c2nnc(SCC(=O)N3CCCCC3)o2)cc1		inconclusive: 8.91 µM [inhibitor, partial curve, poor fit]
COc1ccc(CN2C3CCC2CC(NC(=O)c2cccc(F)c2)C3)cc1 (centres undefined)	inactive: -21.2%	
CCc1ccc(OCC(=O)Nc2cc3oc4ccccc4c3cc2OC)c(Br)c1	inactive: -22%	
CC(=O)N1CCN(C(=O)C(=O)Nc2c3c(nn2-c2ccc(Cl)cc2)CSC3)CC1		inconclusive: 44.7 µM [inhibitor, partial curve]
CC(C)c1ccc(Nc2cc(C(=O)NCCCN(C)Cc3ccccc3)c3ccccc3n2)cc1	inactive: -5.28%	
CC(=O)N1CCc2c(sc(NC(=O)C3CC3)c2-c2nc3ccccc3s2)C1		inconclusive: 31.6 µM [inhibitor, partial curve]
COc1cccc(C(=O)NCC(c2ccc(N(C)C)cc2)N2CCc3ccccc32)c1OC (centres undefined)	inactive: -24.5%	
CCN(CC)C(=O)c1ncn2c1c(=O)[nH]c1ccccc12		inconclusive: 0.282 µM [inhibitor, full curve, poor fit]

Structure (SMILES)	activity change, negative = inhibition	Potency
c1ccc(-c2cnnc(SCc3cn4cccnc4n3)n2)cc1	inactive: -14.9%	
COc1ccc(NC(=O)/C(Cl)=C(/Cl)S(=O)Cc2ccccc2Cl)cn1 (centres undefined)		inconclusive: 35.5 µM [inhibitor, partial curve, poor fit]
CC1Cc2ccccc2N1C(=O)CSc1nnc(Cc2ccccc2)n1CCc1ccccc1 (centres undefined)		inconclusive: 35.5 µM [inhibitor, partial curve]
O=C(NNc1ccccc1Br)C(O)(c1cccc(C(F)(F)F)c1)c1cccc(C(F)(F)F)c1	inactive: -18%	
COc1cccc(-n2c(-c3ccco3)nc3c(cnn3-c3ccccc3C)c2=O)c1		inconclusive: 12.6 µM [inhibitor, partial curve]
COc1cccc(CC(=O)NCC2COc3ccccc3O2)c1OC (centres undefined)		inconclusive: 31.6 µM [inhibitor, partial curve]
c1ccc(-c2cc3c(N4CCCC4)ncnc3s2)cc1		inconclusive: 14.1 µM [inhibitor, partial curve]
Cc1ccc(Sc2ccc(CO)cc2[N+](=O)[O-])cc1		inconclusive: 44.7 µM [inhibitor, partial curve, poor fit]
CN(CCC#N)C(=O)COC(=O)c1c2c(nc3ccccc13)/C(=C\c1ccco1)CC2		inconclusive: 11.2 µM [inhibitor, partial curve]
O=C1C=CC2=C3c4cc(O)c(O)cc4CC3(O)COC2=C1O (centres undefined)	inactive: -22.4%	
CCCCN(CCCC)S(=O)(=O)c1ccc(C(=O)Nc2sc3c(c2C(N)=O)CCN(CC)C3)cc1		inconclusive: 35.5 µM [inhibitor, partial curve]
CCc1nc2ccccc2n1CCCCOc1ccc(Cl)cc1		inconclusive: 4.47 µM [inhibitor, partial curve]
Cc1cn([C@H]2C[C@H](O)[C@@H](CNCc3ccccc3OCCCN3CCOCC3)O2)c(=O)[nH]c1=O		inconclusive: 0.355 µM [inhibitor, full curve]
CCN1CCc2c(sc(NC(=O)Cc3ccccc3)c2C(N)=O)C1	inactive: -21.7%	
Cn1c(SCC(=O)N2CCOCC2)nnc1-c1ccco1	inactive: -14.4%	
CCN(/C=N/c1sc2c(c1C#N)CCCCC2)CC	inactive: -14.1%	
c1ccc(-c2ccc(OCCCNC3CCCC3)cc2)cc1		inconclusive: 15.8 µM [inhibitor, partial curve]
Cc1nn(CCC(=O)N2CCN(c3ccccc3F)CC2)c(C)c1S(=O)(=O)N1CCCC1	inactive: -6.96%	
Cc1cc(O)c(C(C)C)cc1N=Cc1ccccc1[N+](=O)[O-]		inconclusive: 2.82 µM [inhibitor, full curve, poor fit]
O=C(NCc1ccccc1Cl)c1ccc2nc(Cc3ccccc3)oc2c1		inconclusive: 8.91 µM [inhibitor, partial curve, poor fit]
Cc1ccccc1OCC(=O)Nc1ccc([N+](=O)[O-])cc1		inconclusive: 35.5 µM [inhibitor, single point]
Cc1sc2nc(-c3ccccc3)oc(=O)c2c1C		inconclusive: 7.94 µM [inhibitor, partial curve, poor fit]
CCC(CC)C(=O)Nc1cccc(-c2nc3ncccn3c2C)c1		inconclusive: 7.94 µM [inhibitor, partial curve, poor fit]

Four of the compounds above, in markdown:

| Structure (SMILES) | activity change, negative = inhibition | Potency |
| --- | --- | --- |
| Cc1cn([C@H]2C[C@H](O)[C@@H](CNCc3ccccc3OCCCN3CCOCC3)O2)c(=O)[nH]c1=O |  | inconclusive: 0.355 µM [inhibitor, full curve] |
| CCN1CCc2c(sc(NC(=O)Cc3ccccc3)c2C(N)=O)C1 | inactive: -21.7% |  |
| Cn1c(SCC(=O)N2CCOCC2)nnc1-c1ccco1 | inactive: -14.4% |  |
| CCN(/C=N/c1sc2c(c1C#N)CCCCC2)CC | inactive: -14.1% |  |
